Results from the supplement of paper PMC6078165.

Test system: HCC1143
Assay: relative JC-1 red fluorescence (viability) vs pre-drug, coculture with fibroblast (fraction); higher = more viable cancer cells
Procedure: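 JC-1 labelled TNBC cells cocultured 1:1 (1,500 cells each) with CellTrace Violet stained primary or stromal fibroblasts in 384-well plates in FluoroBrite medium, treated with one of 42 anticancer drugs at 0.1, 1, 10 or 100 uM. JC-1 red fluorescence (mitochondrial integrity in cancer cells only) was read by plate reader every 8 h for 72 h. Values are normalised to each well's pre-drug value. The stock of one drug was tenfold lower, so its dose labels may be too high.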

CC(C)C[C@H](NC(=O)[C@H](Cc1ccccc1)NC(=O)c1cnccn1)B(O)O [Bortezomib]
relative JC-1 red fluorescence
Settings	8 h	16 h	24 h	32 h	40 h	48 h	56 h	64 h	72 h
10 µM, coculture fibroblast: C12385	0.666	0.474	0.403	0.365	0.332	0.336	0.328	0.319	0.319
10 µM, coculture fibroblast: H6013	0.648	0.482	0.435	0.401	0.416	0.441	0.439	0.439	0.354
10 µM, coculture fibroblast: H6019	0.578	0.415	0.368	0.329	0.316	0.328	0.328	0.329	0.33
10 µM, coculture fibroblast: H6076	0.7706	0.622	0.541	0.598	0.506	0.521	0.525	0.505	0.548
10 µM, coculture fibroblast: H6231	0.846	0.6716	0.524	0.58	0.432	0.42	0.391	0.369	0.375
10 µM, coculture fibroblast: HADF	0.6263	0.452	0.378	0.321	0.289	0.293	0.274	0.267	0.188
10 µM, coculture fibroblast: HCFa	0.679	0.448	0.3885	0.332	0.302	0.291	0.268	0.256	0.197
10 µM, coculture fibroblast: HCPF	0.8239	0.698	0.5952	0.649	0.518	0.512	0.479	0.4521	0.4718
10 µM, coculture fibroblast: HHSteC	0.729	0.534	0.436	0.373	0.361	0.356	0.332	0.322	0.251
10 µM, coculture fibroblast: HMF	0.79	0.702	0.543	0.547	0.417	0.416	0.399	0.389	0.393
10 µM, coculture fibroblast: HPFa	0.702	0.387	0.323	0.273	0.242	0.243	0.229	0.222	0.221
10 µM, coculture fibroblast: HUF	0.701	0.457	0.342	0.273	0.2336	0.23	0.208	0.198	0.194
10 µM, coculture fibroblast: Hs5	0.819	0.651	0.54	0.554	0.438	0.419	0.4	0.377	0.398
10 µM, coculture fibroblast: Hs27A	0.592	0.381	0.341	0.331	0.3048	0.3336	0.309	0.302	0.214
10 µM, coculture fibroblast: Hs343T	0.799	0.637	0.475	0.476	0.3643	0.355	0.329	0.317	0.312
10 µM, coculture fibroblast: WS1	0.623	0.392	0.325	0.275	0.244	0.239	0.224	0.219	0.22
100 µM, coculture fibroblast: C12385	0.697	0.423	0.32	0.259	0.228	0.216	0.204	0.193	0.188
100 µM, coculture fibroblast: H6013	0.615	0.435	0.43	0.402	0.405	0.422	0.408	0.407	0.32
100 µM, coculture fibroblast: H6019	0.685	0.521	0.49	0.459	0.452	0.463	0.456	0.46	0.458
100 µM, coculture fibroblast: H6076	0.773	0.5494	0.432	0.465	0.391	0.3933	0.372	0.36	0.381
100 µM, coculture fibroblast: H6231	0.7996	0.665	0.515	0.578	0.447	0.432	0.396	0.368	0.367
100 µM, coculture fibroblast: HADF	0.698	0.504	0.429	0.376	0.316	0.311	0.284	0.269	0.198
100 µM, coculture fibroblast: HCFa	0.74	0.558	0.515	0.458	0.422	0.412	0.384	0.367	0.301
100 µM, coculture fibroblast: HCPF	0.8	0.704	0.545	0.535	0.444	0.429	0.398	0.37	0.375
100 µM, coculture fibroblast: HHSteC	0.8	0.587	0.541	0.485	0.449	0.437	0.402	0.382	0.302
100 µM, coculture fibroblast: HMF	0.783	0.627	0.423	0.419	0.295	0.284	0.274	0.266	0.27
100 µM, coculture fibroblast: HPFa	0.7455	0.465	0.398	0.37	0.323	0.32	0.294	0.288	0.281
100 µM, coculture fibroblast: HUF	0.7463	0.503	0.408	0.306	0.273	0.268	0.238	0.225	0.219
100 µM, coculture fibroblast: Hs5	0.844	0.604	0.483	0.493	0.394	0.374	0.358	0.34	0.348
100 µM, coculture fibroblast: Hs27A	0.566	0.368	0.332	0.345	0.296	0.312	0.288	0.275	0.201
100 µM, coculture fibroblast: Hs343T	0.781	0.576	0.412	0.404	0.304	0.291	0.269	0.257	0.25
100 µM, coculture fibroblast: WS1	0.709	0.482	0.352	0.286	0.25	0.239	0.222	0.212	0.205

The reference is the same well before dosing, and untreated signal decays as well.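 Labels refer to human fibroblasts, largely primary: uterine (C12385, HUF), lung (H6013), bone (Hs27A), adrenal (HADF), skin (WS1), plus mammary HMF and breast cancer-associated Hs343T. Cancer lines are basal-like or mesenchymal-like triple-negative breast cancer. The paper counts as hits responses shifting over 3x the replicate standard deviation. The tissue of the other fibroblasts is not given here.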
